Data taken from publication doi:10.1101/2023.11.15.567291.
These are yes or no findings as the source states them, for the method shown. Some entries that bind do so weakly or less than the wild type.

Sequences of proteins named here, by UniProt entry; tags and fusion partners are left off. Residues count along the entry.
UniProt O95800: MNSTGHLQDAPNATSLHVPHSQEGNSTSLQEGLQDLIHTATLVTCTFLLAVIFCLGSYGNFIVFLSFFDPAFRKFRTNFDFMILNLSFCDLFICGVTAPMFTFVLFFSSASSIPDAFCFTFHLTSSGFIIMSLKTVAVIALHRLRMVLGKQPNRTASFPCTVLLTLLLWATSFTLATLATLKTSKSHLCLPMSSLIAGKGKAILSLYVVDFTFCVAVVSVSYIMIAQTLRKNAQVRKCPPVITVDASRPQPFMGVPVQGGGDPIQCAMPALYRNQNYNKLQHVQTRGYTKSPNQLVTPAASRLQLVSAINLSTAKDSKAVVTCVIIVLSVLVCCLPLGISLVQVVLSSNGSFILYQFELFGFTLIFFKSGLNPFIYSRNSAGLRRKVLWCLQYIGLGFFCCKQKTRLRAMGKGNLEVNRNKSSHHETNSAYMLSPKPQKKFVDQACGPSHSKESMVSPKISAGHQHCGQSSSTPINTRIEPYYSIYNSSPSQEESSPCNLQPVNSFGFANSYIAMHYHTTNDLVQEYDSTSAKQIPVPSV
UniProt P51681: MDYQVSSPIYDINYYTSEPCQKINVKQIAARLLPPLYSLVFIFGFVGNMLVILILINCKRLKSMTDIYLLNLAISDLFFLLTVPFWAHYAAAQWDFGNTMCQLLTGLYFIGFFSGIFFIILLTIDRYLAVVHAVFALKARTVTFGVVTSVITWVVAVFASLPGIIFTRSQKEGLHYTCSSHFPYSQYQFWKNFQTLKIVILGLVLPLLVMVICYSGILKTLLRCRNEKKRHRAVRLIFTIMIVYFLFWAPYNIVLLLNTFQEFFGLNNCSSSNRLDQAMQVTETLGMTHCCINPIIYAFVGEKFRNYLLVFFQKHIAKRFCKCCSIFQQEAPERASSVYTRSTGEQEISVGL
UniProt P13501, residues 24-91: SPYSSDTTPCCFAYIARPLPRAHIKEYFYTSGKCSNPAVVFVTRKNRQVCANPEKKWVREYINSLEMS
UniProt P51671, residues 24-97: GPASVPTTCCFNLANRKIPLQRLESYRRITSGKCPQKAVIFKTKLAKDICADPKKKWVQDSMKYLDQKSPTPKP

Legend:
Assay in all cases: ELISA
[1] = biological target: human G protein-coupled receptor 75 (GPR75) on stably expressing HEK293T cells (human) (UniProt O95800)
[2] = biological target: T1, human C-C chemokine receptor 1 (CCR1) on stably expressing HEK293T cells (human) (UniProt P32246)
T1 sequence: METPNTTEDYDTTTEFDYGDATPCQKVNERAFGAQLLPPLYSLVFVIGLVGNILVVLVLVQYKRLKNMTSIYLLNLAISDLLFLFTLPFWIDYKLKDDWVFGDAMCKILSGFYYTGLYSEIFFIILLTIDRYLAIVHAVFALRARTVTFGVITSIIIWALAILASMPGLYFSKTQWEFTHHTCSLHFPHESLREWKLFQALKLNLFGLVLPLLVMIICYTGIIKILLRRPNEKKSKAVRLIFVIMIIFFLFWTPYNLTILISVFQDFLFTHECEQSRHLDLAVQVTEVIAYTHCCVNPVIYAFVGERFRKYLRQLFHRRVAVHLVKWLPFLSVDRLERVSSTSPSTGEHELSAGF

[3] = biological target: T2, human C-C chemokine receptor 3 (CCR3) on stably expressing HEK293T cells (human) (UniProt P51677)
T2 sequence: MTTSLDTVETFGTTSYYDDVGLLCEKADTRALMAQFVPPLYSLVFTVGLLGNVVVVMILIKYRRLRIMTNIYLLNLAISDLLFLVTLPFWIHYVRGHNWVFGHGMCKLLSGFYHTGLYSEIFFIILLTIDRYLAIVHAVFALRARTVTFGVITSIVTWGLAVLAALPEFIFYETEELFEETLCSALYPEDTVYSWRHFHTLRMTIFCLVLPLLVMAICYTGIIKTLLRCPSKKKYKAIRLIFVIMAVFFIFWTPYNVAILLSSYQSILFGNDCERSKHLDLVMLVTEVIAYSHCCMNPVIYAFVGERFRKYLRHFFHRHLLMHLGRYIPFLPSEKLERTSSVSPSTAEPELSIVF

[4] = biological target: human C-C chemokine receptor 5 (CCR5) on stably expressing HEK293T cells (human) (UniProt P51681)

binding [1] | binding [2] | binding [3] | binding [4] | Substance
binds | binds | binds |  | His-tagged recombinant human C-C chemokine ligand 5 (CCL5) (from UniProt P13501 24-91)
 |  |  | binds | His-tagged recombinant human C-C chemokine ligand 11 (CCL11) (from UniProt P51671 24-97)
